Measurements as given in doi:10.1101/2021.10.25.465752.
Where a chain is given by its changes, count along the chain named. Names and notes keep the numbering of the source. These are yes or no findings as the source states them, for the method shown. In cells and extracts the contact can be indirect. Some binding calls cover weakened binding; strength is not graded here. Values belong to the binder of their own block, whether it stands above or below them.

Target: T1, STN1-YCE (Arabidopsis thaliana) (UniProt Q9LMK5)
T1 sequence: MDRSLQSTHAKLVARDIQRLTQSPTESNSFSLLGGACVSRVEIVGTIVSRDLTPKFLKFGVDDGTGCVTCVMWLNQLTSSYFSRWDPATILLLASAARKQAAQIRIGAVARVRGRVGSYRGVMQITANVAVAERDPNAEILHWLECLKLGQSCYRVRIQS
Test: split reporter

binding: binds
B1: G100E-YNE (protein, UniProt Q6NME7 1-127)
chain: MAKSQIEPGVPITLQELYPSSLFYKEGVSLRVTAMLRGYSVETAIGVIEDGGRSLKINTQNIRDVSFRVGSIYQFIGELHIEQPNNEAILQARTGRNVDEIDMNLYRKTIELLRQFLKEEDNSNMVE

binding: binds
B2: TEN1-YNE (protein, UniProt Q6NME7 1-127)
chain: B1 chain with E100G
